Results taken from the supplement of paper PMC12595434, “Development of retinoid nuclear receptor pathway antagonists through targeting aldehyde dehydrogenase 1A3” (iScience, 2025).
The list shows a part of the results. This is a noisy data set.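 Many melting curves are irregular; where none melted, Tm was taken as 64 °C.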

Amino acid sequences for entries named in this document (tags omitted). A change or cut given only in a name is not applied to a line headed by its entry.
UniProt O75179: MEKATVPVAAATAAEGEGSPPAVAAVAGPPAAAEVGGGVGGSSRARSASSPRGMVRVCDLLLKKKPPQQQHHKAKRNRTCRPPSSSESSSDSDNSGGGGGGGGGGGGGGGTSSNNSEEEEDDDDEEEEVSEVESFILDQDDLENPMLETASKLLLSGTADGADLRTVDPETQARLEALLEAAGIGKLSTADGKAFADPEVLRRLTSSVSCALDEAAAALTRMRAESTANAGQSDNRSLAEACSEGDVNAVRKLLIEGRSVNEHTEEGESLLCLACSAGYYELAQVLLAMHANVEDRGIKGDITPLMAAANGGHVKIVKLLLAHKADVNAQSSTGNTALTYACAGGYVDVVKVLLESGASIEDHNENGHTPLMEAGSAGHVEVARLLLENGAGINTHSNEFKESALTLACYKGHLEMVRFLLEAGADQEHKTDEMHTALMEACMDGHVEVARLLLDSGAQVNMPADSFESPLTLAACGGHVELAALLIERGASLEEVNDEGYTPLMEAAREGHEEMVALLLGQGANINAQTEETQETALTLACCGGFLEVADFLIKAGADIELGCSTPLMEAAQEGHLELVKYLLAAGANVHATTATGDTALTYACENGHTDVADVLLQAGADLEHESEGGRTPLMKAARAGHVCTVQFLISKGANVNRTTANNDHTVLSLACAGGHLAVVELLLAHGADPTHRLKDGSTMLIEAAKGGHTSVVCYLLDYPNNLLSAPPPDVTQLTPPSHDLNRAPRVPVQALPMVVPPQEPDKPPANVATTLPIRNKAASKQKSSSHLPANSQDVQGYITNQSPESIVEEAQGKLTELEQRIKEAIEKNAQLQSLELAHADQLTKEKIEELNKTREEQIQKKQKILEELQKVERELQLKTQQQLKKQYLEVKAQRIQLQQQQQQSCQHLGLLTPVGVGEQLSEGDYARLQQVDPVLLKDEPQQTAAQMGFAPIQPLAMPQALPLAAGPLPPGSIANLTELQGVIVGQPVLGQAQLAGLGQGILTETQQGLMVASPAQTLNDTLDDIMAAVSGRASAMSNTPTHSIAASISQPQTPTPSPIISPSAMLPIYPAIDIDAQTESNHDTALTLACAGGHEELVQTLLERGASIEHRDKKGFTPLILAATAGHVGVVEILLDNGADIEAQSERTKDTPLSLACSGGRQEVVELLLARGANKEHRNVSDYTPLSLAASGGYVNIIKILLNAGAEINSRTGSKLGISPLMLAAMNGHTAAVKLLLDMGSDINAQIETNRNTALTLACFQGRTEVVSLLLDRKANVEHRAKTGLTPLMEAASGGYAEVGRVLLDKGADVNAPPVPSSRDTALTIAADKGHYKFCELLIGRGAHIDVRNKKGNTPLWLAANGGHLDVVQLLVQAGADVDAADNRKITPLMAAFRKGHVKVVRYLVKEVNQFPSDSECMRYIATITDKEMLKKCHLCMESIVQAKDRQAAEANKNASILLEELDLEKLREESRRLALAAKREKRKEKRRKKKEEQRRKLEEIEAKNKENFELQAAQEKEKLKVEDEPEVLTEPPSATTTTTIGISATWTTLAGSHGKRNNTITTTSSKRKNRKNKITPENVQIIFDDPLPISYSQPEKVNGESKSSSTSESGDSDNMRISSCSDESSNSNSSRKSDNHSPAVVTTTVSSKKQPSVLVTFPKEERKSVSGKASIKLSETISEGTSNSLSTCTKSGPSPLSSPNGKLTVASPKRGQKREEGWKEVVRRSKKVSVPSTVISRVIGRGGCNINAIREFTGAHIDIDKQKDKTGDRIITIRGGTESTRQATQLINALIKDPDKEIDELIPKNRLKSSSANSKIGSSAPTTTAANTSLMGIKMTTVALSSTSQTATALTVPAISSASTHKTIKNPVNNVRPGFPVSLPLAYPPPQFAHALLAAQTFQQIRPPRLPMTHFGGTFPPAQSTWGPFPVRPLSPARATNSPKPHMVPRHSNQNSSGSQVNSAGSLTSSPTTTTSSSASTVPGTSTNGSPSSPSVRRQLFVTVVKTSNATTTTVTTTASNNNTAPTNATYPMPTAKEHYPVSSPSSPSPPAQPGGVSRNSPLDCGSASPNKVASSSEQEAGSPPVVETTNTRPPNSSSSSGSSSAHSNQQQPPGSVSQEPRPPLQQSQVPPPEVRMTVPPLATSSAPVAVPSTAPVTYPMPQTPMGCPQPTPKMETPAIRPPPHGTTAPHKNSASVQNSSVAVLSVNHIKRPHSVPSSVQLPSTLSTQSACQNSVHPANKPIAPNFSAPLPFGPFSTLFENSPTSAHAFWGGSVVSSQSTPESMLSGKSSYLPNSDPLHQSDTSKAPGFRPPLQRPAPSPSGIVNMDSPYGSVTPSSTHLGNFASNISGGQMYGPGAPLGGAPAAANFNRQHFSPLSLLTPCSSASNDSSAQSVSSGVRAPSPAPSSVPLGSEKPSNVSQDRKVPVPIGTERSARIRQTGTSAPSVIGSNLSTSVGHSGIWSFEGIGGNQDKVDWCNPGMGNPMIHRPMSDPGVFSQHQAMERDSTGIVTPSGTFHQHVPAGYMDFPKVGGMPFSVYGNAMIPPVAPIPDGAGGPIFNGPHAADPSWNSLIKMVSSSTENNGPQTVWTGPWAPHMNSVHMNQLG
UniProt O43809, whole entry: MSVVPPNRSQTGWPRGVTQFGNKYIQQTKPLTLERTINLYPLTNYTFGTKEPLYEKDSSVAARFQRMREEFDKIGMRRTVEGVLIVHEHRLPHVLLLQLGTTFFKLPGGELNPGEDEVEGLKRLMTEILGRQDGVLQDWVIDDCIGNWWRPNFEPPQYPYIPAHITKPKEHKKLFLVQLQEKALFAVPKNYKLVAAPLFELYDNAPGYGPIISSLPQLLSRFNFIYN
UniProt O75674: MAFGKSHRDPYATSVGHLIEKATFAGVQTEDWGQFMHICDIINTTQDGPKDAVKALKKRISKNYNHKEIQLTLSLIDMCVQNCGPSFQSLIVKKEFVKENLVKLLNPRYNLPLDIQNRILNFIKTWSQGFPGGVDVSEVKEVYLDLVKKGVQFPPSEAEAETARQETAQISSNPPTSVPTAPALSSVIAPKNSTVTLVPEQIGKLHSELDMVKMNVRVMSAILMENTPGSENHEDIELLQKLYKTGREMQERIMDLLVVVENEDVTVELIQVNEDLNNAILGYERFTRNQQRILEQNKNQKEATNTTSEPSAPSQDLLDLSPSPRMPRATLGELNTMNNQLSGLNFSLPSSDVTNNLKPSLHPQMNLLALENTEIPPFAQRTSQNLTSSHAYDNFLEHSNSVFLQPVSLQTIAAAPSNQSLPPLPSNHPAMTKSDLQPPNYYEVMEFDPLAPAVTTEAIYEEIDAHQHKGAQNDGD
UniProt O43683: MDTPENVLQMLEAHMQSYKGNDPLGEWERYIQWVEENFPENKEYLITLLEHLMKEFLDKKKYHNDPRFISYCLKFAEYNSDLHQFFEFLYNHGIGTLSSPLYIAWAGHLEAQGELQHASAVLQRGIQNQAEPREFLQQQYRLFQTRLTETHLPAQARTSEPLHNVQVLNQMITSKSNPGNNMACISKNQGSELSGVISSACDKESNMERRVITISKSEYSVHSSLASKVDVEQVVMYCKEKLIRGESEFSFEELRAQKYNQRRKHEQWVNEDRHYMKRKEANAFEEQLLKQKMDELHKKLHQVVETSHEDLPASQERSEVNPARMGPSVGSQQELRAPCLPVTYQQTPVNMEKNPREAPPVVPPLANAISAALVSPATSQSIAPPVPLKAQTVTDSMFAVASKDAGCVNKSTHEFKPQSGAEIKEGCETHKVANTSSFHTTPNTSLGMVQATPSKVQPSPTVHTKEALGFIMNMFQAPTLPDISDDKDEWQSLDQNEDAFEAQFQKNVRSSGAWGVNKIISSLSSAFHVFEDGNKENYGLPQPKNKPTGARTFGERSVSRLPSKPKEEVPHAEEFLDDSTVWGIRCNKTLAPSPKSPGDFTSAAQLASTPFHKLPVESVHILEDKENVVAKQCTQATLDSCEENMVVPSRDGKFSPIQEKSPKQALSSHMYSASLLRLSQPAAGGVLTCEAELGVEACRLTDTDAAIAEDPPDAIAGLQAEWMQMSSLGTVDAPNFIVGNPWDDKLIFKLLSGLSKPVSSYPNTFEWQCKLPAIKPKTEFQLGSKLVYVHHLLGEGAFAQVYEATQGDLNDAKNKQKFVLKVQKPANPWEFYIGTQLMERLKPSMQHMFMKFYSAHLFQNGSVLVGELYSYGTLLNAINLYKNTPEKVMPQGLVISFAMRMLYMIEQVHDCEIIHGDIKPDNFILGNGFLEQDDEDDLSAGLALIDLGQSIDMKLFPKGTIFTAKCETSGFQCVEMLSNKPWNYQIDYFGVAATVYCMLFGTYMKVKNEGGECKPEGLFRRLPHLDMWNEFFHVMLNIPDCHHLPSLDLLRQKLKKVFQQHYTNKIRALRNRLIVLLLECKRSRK
UniProt O75153: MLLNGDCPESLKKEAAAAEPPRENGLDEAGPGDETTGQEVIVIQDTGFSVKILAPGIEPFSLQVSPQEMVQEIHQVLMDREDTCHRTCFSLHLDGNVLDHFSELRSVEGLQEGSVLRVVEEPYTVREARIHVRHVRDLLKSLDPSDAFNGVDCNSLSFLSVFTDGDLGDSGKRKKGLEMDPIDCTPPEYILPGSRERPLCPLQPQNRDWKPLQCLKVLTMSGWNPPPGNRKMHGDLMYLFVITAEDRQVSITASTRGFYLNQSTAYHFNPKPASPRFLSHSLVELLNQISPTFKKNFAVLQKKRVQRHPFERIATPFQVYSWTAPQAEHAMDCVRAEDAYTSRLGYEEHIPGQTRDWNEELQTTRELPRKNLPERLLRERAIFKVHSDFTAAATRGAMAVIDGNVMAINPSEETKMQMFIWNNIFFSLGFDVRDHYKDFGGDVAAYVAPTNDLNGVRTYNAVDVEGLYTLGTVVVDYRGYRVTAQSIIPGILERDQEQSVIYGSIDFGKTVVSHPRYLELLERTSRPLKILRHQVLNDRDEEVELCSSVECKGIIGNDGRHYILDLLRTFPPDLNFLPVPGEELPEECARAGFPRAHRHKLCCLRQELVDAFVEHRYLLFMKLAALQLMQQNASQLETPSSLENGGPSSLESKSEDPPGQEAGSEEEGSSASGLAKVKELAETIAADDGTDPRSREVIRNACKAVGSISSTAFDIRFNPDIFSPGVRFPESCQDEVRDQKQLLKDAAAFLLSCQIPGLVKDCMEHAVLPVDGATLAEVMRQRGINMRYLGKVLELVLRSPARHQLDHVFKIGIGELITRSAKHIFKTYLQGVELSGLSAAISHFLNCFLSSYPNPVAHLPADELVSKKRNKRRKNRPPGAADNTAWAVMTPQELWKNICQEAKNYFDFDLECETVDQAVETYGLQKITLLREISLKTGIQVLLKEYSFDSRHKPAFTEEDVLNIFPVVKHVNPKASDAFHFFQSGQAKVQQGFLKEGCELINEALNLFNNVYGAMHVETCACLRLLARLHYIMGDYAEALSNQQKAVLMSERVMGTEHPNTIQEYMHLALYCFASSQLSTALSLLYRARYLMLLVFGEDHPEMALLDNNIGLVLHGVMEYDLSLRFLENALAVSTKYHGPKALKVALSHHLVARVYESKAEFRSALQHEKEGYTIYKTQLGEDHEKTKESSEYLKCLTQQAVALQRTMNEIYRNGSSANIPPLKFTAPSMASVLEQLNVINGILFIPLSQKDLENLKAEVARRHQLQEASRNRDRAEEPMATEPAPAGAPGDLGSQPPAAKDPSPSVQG
UniProt O60493, whole entry: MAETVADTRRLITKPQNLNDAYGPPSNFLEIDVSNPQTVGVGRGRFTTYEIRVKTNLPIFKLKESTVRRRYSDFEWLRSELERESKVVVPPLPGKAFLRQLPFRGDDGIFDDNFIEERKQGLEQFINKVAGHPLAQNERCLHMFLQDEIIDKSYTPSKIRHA
UniProt O75531: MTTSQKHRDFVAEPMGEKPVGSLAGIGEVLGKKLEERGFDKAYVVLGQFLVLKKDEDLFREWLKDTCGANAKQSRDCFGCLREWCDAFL
UniProt O43482, whole entry: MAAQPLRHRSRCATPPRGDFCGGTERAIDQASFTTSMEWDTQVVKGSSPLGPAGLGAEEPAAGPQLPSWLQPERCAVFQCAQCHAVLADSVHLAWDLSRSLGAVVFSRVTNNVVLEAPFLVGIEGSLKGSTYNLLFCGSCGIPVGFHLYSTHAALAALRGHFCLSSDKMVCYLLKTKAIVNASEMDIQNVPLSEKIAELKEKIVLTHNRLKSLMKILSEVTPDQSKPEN
UniProt O60262: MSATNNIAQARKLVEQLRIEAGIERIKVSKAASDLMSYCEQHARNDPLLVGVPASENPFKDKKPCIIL
UniProt O75695: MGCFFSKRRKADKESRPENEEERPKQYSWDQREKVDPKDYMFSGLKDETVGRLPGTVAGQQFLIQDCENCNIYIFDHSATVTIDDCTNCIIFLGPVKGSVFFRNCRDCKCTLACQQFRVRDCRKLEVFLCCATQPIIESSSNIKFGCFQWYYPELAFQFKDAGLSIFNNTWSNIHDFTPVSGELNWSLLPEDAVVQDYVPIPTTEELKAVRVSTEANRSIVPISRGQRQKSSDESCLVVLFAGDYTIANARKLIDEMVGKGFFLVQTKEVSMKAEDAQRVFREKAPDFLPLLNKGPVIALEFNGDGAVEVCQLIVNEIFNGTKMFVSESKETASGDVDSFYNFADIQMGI

Compound: CCc1cnccc1C(=O)Nc1cc2c(cc1F)NC(=O)CC2
Test: melting temperature shift (DMSO Tm minus MBE1-treated Tm) in cellular thermal proteome profiling; higher = less thermal stabilization by MBE1 (negative = stabilized by MBE1)
Details: A375

| Target | melting temperature shift (MBE1 concentration: 100 nM) [°C] | melting temperature shift (MBE1 concentration: 1 uM) [°C] |
| --- | --- | --- |
| ERAL1 (UniProt O75616) | -0.538 | -0.333 |
| ANKRD17 (UniProt O75179) | -1.05 | -0.0941 |
| LANCL1 (UniProt O43813) | -0.908 | -0.532 |
| XYLB (UniProt O75191) | -0.819 | -0.231 |
| CTNND1 (UniProt O60716) | 0.301 | 0.0706 |
| SRGAP2 (UniProt O75044) | 1.21 | 0.299 |
| UniProt O60462 | -1.63 | 0.397 |
| CLN5 (UniProt O75503) | 0.127 | 0.503 |
| TIMM44 (UniProt O43615) | 0.409 | 0.837 |
| UniProt O75037 | -0.513 | 0.147 |
| ZC3H11A (UniProt O75152) | -0.0897 | -0.404 |
| UniProt O60279 | -4.73 | -3.83 |
| ATRN (UniProt O75882) | 0.183 | 2.09 |
| CUTA (UniProt O60888) | -0.611 | -4.03 |
| CDC123 (UniProt O75794) | 0.867 | 0.69 |
| SNX2 (UniProt O60749) | -0.299 | -0.263 |
| DPM1 (UniProt O60762) | -1.06 | -1.19 |
| PEX1 (UniProt O43933) | 0.415 | 0.183 |
| NOS1AP (UniProt O75052) | -0.244 | -0.855 |
| AKAP8 (UniProt O43823) | -1.79 | -1.13 |
| PALM (UniProt O75781) | -2.52 | 0.434 |
| PLXNA2 (UniProt O75051) | -1.94 | -0.226 |
| NDUFA2 (UniProt O43678) | -2.5 | 0.862 |
| SPAG9 (UniProt O60271) | 0.861 | 0.177 |

| Target | melting temperature shift (MBE1 concentration: 100 nM) [°C] | melting temperature shift (MBE1 concentration: 1 uM) [°C] |
| --- | --- | --- |
| PPM1B (UniProt O75688) | -0.407 | 0.281 |
| NUDT21 (UniProt O43809) | -1.02 | 0.604 |
| DNAJA2 (UniProt O60884) | -1.14 | 0.449 |
| UniProt O75629 | -0.932 | 1.36 |
| ZPR1 (UniProt O75312) | -0.818 | 0.0488 |
| NUP155 (UniProt O75694) | 1.29 | 1.05 |
| PDE8A (UniProt O60658) | -0.55 | 0.666 |
| NDUFB3 (UniProt O43676) | -3.93 | -3.97 |
| PRMT3 (UniProt O60678) | 0.659 | 0.385 |
| UniProt O43909 | -0.215 | -0.342 |
| TOM1L1 (UniProt O75674) | -0.309 | 0.226 |
| XPOT (UniProt O43592) | -0.0244 | -0.397 |
| STX6 (UniProt O43752) | -1.12 | -0.704 |
| RPP40 (UniProt O75818) | -2.3 | -0.733 |
| UniProt O75140 | -0.148 | 1.15 |
| UniProt O60229 | -1.09 | -5 |
| ECI2 (UniProt O75521) | 0.892 | 0.434 |
| NARS (UniProt O43776) | -0.376 | 0.336 |
| ACSL4 (UniProt O60488) | 0.696 | -0.00611 |
| UniProt O75461 | -1.67 | -0.474 |
| EMC8 (UniProt O43402) | -1.07 | -0.322 |
| TIPRL (UniProt O75663) | 1.23 | 0.574 |
| CS (UniProt O75390) | -0.423 | 0.181 |
| MAN1A2 (UniProt O60476) | -0.657 | 0.241 |

| Target | melting temperature shift (MBE1 concentration: 100 nM) [°C] | melting temperature shift (MBE1 concentration: 1 uM) [°C] |
| --- | --- | --- |
| BUB1 (UniProt O43683) | -1.52 | -0.98 |
| VPS26A (UniProt O75436) | -0.798 | -0.516 |
| EIF3G (UniProt O75821) | 0.605 | 0.434 |
| HTATSF1 (UniProt O43719) | -0.173 | -0.43 |
| CLUH (UniProt O75153) | 0.464 | 0.452 |
| RNASEH2A (UniProt O75792) | 0.22 | -0.0366 |
| MYCBP2 (UniProt O75592) | 0.598 | 0.104 |
| EIF4E2 (UniProt O60573) | -0.103 | -0.822 |
| PMPCB (UniProt O75439) | -0.295 | 0.282 |
| OPA1 (UniProt O60313) | -0.375 | 0.342 |
| UniProt O43422 | 0.198 | -0.442 |
| RAD1 (UniProt O60671) | 0.0122 | -0.433 |
| TXNL1 (UniProt O43396) | 0.904 | 0.293 |
| UniProt O43716 | 0.898 | 1.86 |
| UniProt O60287 | -0.737 | 0.391 |
| UniProt O60551 | -1.63 | 0.208 |
| ABCB7 (UniProt O75027) | -0.221 | 0.495 |
| HIP1R (UniProt O75146) | 3.3 | 2.09 |
| CSDE1 (UniProt O75534) | -0.585 | -0.346 |
| N4BP1 (UniProt O75113) | -0.433 | -0.908 |
| UniProt O75352 | -1.48 | 0.0472 |
| DNAJC13 (UniProt O75165) | 1.37 | 0.342 |
| NCOR1 (UniProt O75376) | -1.36 | -0.993 |
| SNX3 (UniProt O60493) | -0.273 | -0.447 |

Single records, from the list above:
UniProt O60279 in the list: melting temperature shift (MBE1 concentration: 100 nM) [°C]: -4.73; melting temperature shift (MBE1 concentration: 1 uM) [°C]: -3.83
PEX1 (UniProt O43933) in the list: melting temperature shift (MBE1 concentration: 100 nM) [°C]: 0.415; melting temperature shift (MBE1 concentration: 1 uM) [°C]: 0.183
SNX2 (UniProt O60749) in the list: melting temperature shift (MBE1 concentration: 100 nM) [°C]: -0.299; melting temperature shift (MBE1 concentration: 1 uM) [°C]: -0.263
DNAJC13 (UniProt O75165) in the list: melting temperature shift (MBE1 concentration: 100 nM) [°C]: 1.37; melting temperature shift (MBE1 concentration: 1 uM) [°C]: 0.342

Following part:

| Target | melting temperature shift (MBE1 concentration: 100 nM) [°C] | melting temperature shift (MBE1 concentration: 1 uM) [°C] |
| --- | --- | --- |
| BANF1 (UniProt O75531) | -0.879 | 0.262 |
| NDUFS5 (UniProt O43920) | -1.36 | -0.84 |
| GIGYF1 (UniProt O75420) | 0.598 | -0.889 |
| EIF5B (UniProt O60841) | -0.116 | 0.434 |
| CLASP2 (UniProt O75122) | 0.165 | -0.153 |
| UniProt O75317 | -0.892 | -1.9 |
| MYO1B (UniProt O43795) | 0.208 | 0.0427 |
| RAD21 (UniProt O60216) | -0.526 | -0.208 |
| UniProt O43597 | -5.05 | -3.36 |
| LIAS (UniProt O43766) | -1.47 | -2.66 |
| LRCH4 (UniProt O75427) | -0.165 | 0.141 |
| DKC1 (UniProt O60832) | 0.165 | 0.562 |
| SPAG7 (UniProt O75391) | -2.85 | -0.806 |
| UniProt O75356 | -0.651 | 0.219 |
| FOXO3 (UniProt O43524) | -2.08 | 3.61 |
| HNRNPR (UniProt O43390) | -0.183 | -0.353 |
| SYNCRIP (UniProt O60506) | 0.104 | 0.293 |
| ATP6V1G1 (UniProt O75348) | -3.64 | -5.55 |
| CCDC22 (UniProt O60826) | 0.507 | -0.0916 |
| UGDH (UniProt O60701) | -0.59 | 0.335 |
| CHMP2A (UniProt O43633) | -0.757 | 0.189 |
| RPS6KA5 (UniProt O75582) | -0.358 | -0.339 |
| UniProt O43482 | -1.12 | 0.226 |
| UniProt O60262 | 0.769 | -0.208 |

| Target | melting temperature shift (MBE1 concentration: 100 nM) [°C] | melting temperature shift (MBE1 concentration: 1 uM) [°C] |
| --- | --- | --- |
| TRMU (UniProt O75648) | 1.15 | 0.403 |
| UniProt O75771 | -0.753 | 0.721 |
| KIF1C (UniProt O43896) | 0.226 | -0.434 |
| TULP3 (UniProt O75386) | -0.0366 | -0.507 |
| FIBP (UniProt O43427) | -2.23 | 1.07 |
| HTRA2 (UniProt O43464) | -0.194 | 0.574 |
| PRPSAP2 (UniProt O60256) | -1.04 | 0.305 |
| UniProt O43639 | 0.16 | -0.0423 |
| SEC22B (UniProt O75396) | 0.0244 | 0.385 |
| ATP6AP2 (UniProt O75787) | -0.563 | 0.305 |
| SGTA (UniProt O43765) | 0.104 | 0.232 |
| PDE6D (UniProt O43924) | 0.181 | -0.342 |
| PEX14 (UniProt O75381) | -3.29 | 0.635 |
| PLRG1 (UniProt O43660) | 0.47 | -1.18 |
| PSIP1 (UniProt O75475) | -1.01 | 0.348 |
| EPB41L2 (UniProt O43491) | -0.747 | 0.165 |
| LCMT2 (UniProt O60294) | 0.362 | 0.202 |
| SIN3B (UniProt O75182) | -0.128 | -0.34 |
| WDHD1 (UniProt O75717) | 4.59 | 1.72 |
| UniProt O75529 | -0.484 | -0.179 |
| PPP1R37 (UniProt O75864) | -0.579 | 0.73 |
| GBAS (UniProt O75323) | -0.731 | -0.134 |
| RP2 (UniProt O75695) | 0.189 | 0.238 |
| NDUFB5 (UniProt O43674) | -1.06 | -0.33 |
